{"source": "PubChem BioAssay AID1259308 (NCATS, 2017)", "assay": "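Knock-downs that increase output of a recombinant reporter protein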 (primary screen)", "system": "human HEK293 embryonic kidney cells stably expressing firefly luciferase (HEK-CMV-Luc2-Hygro)", "reagents": "single siRNA against human genes, 0.8 pmol siRNA per well", "time to read-out": "72 h", "read-out": "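Reporter luminescence and viable-cell signal on separate replicate plates, given as percent of non-targeting control and median/MAD z-scores, plus per-cell luciferase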", "reading the numbers": "total luciferase, z-score: higher = more reporter protein produced", "rule for the call": "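An siRNA counts as active if its total luciferase robust z-score exceeds 3; genes with two or more such siRNAs out of three were retested with fresh siRNAs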", "meaning of the calls": "active = raised luciferase; inactive = no rise", "note": "This is one part, drawn at random, of about 59,000 reagents. Of all reagents, about 1,510 (2.6%) are marked active. 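Calls use total luciferase alone and ignore viability, so some active siRNAs may act by altering cell number.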 Entries without a mark were called inactive. The numbers tell different reagents against one gene apart. Further read-outs or replicates are left out here."}
{"gene":"VEGFC","siRNA no.":1,"total luciferase, z-score":1.03}
{"gene":"VEGFC","siRNA no.":2,"total luciferase, z-score":-0.777}
{"gene":"VEGFC","siRNA no.":3,"total luciferase, z-score":0.18}
{"gene":"KCNRG","siRNA no.":1,"total luciferase, z-score":-1.43}
{"gene":"KCNRG","siRNA no.":2,"total luciferase, z-score":0.0187}
{"gene":"KCNRG","siRNA no.":3,"total luciferase, z-score":-0.547}
{"gene":"QRICH2","siRNA no.":1,"total luciferase, z-score":-0.305}
{"gene":"QRICH2","siRNA no.":2,"total luciferase, z-score":0.445}
{"gene":"QRICH2","siRNA no.":3,"total luciferase, z-score":-0.505}
{"gene":"ITIH3","siRNA no.":1,"total luciferase, z-score":-0.509}
{"gene":"ITIH3","siRNA no.":2,"total luciferase, z-score":"3.63 (active)"}
{"gene":"ITIH3","siRNA no.":3,"total luciferase, z-score":-0.379}
{"gene":"SMCO1","siRNA no.":1,"total luciferase, z-score":0.928}
{"gene":"SMCO1","siRNA no.":2,"total luciferase, z-score":-0.0502}
{"gene":"SMCO1","siRNA no.":3,"total luciferase, z-score":0.873}
{"gene":"PPP1R3E","siRNA no.":1,"total luciferase, z-score":0.959}
{"gene":"PPP1R3E","siRNA no.":2,"total luciferase, z-score":-1.13}
{"gene":"PPP1R3E","siRNA no.":3,"total luciferase, z-score":-1.15}
{"gene":"HELQ","siRNA no.":1,"total luciferase, z-score":0.203}
{"gene":"HELQ","siRNA no.":2,"total luciferase, z-score":0.612}
{"gene":"HELQ","siRNA no.":3,"total luciferase, z-score":-1.94}

A few values from the list:
Value for HELQ #2 in “total luciferase, z-score”: 0.612
Value of SMCO1 #3 in “total luciferase, z-score”: 0.873
HELQ #1, total luciferase, z-score = 0.203
